According to the supplement of paper PMC10849652:
The other results are listed elsewhere or left out.

Sequences of proteins named here, by UniProt entry; tags and fusion partners are left off. A change or cut given only in a name is not applied to a line headed by its entry.
UniProt Q9NVM1: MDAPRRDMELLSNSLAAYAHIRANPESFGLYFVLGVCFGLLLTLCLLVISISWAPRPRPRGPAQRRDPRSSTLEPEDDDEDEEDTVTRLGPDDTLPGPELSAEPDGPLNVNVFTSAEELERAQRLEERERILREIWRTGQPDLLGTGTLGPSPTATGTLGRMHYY
UniProt Q969W3: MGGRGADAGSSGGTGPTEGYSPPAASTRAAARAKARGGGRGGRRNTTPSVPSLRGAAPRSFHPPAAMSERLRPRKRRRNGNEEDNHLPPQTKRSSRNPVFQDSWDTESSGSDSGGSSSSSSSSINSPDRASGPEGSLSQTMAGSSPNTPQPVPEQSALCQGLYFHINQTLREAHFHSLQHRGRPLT
UniProt Q9P2D6: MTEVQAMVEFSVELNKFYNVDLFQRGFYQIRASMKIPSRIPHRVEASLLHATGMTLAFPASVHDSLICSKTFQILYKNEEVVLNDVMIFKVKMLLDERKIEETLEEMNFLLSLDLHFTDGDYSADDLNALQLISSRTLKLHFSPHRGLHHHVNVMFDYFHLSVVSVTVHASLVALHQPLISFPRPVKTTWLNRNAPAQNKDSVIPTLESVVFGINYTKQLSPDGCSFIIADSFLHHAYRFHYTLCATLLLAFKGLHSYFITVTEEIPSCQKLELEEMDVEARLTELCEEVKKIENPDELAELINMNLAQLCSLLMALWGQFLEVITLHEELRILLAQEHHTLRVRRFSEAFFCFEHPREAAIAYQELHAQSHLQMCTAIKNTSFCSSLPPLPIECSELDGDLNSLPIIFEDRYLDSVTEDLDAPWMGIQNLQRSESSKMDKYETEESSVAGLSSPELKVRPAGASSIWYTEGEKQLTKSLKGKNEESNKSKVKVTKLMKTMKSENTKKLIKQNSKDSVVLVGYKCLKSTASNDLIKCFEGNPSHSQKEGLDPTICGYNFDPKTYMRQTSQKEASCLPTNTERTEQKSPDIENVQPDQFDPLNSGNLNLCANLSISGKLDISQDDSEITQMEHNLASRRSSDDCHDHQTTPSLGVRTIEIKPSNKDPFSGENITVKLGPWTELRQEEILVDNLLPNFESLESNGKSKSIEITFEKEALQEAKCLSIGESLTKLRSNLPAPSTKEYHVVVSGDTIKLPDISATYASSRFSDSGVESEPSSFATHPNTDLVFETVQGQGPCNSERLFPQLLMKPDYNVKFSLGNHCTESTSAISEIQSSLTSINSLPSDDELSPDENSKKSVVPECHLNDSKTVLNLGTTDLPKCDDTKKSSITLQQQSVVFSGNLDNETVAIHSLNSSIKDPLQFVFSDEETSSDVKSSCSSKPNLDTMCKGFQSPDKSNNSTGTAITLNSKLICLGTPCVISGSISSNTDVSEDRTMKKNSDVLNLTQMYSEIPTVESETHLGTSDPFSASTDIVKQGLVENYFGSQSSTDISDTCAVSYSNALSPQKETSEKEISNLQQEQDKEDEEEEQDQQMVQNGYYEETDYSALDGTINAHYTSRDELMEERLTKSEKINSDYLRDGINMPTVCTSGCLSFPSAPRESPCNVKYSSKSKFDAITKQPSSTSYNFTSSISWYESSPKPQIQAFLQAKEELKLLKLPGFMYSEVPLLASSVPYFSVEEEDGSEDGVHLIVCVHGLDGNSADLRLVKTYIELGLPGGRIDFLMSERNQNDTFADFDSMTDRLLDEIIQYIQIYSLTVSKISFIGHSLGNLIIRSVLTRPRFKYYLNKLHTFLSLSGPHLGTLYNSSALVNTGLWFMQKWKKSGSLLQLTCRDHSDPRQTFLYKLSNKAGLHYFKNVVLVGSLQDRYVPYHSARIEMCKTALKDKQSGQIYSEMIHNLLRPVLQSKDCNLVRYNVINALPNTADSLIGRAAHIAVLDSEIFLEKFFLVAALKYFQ
UniProt P41162: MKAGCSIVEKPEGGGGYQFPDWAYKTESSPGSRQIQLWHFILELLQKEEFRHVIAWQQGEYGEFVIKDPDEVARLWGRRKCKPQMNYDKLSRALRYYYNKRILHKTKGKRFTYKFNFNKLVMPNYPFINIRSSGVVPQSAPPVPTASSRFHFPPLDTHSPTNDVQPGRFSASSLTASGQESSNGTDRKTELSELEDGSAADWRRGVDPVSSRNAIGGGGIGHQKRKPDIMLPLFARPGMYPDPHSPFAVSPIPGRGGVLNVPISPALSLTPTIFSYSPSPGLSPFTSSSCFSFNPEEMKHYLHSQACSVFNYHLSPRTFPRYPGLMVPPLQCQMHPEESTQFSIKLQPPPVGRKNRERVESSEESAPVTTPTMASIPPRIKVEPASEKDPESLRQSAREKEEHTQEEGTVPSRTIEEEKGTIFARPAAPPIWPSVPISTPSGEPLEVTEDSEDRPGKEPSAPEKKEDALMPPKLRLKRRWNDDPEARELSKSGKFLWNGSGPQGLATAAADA
UniProt A2RU67: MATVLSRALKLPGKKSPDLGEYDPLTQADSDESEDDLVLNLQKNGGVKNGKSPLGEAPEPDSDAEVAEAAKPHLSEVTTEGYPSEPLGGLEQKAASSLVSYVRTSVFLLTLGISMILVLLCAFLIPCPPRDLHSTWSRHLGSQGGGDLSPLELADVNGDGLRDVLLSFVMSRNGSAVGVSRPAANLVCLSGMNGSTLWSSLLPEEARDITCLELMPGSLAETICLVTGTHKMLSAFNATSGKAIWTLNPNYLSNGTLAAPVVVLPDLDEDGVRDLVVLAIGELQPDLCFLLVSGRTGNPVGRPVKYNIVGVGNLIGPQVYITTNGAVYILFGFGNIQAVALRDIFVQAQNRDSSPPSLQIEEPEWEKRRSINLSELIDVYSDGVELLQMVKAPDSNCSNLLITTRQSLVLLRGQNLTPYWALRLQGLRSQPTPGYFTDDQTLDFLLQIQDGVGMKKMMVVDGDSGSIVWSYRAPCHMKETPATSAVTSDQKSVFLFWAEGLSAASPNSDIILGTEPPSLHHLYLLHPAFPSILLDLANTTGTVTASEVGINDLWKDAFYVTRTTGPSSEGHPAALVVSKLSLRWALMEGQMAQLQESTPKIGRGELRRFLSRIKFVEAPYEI
UniProt H0Y354, whole entry, looked up: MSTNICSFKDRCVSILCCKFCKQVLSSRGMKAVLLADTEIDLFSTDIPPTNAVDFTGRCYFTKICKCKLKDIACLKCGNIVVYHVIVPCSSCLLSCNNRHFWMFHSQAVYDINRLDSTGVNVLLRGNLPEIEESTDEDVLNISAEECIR
UniProt Q5VUB5: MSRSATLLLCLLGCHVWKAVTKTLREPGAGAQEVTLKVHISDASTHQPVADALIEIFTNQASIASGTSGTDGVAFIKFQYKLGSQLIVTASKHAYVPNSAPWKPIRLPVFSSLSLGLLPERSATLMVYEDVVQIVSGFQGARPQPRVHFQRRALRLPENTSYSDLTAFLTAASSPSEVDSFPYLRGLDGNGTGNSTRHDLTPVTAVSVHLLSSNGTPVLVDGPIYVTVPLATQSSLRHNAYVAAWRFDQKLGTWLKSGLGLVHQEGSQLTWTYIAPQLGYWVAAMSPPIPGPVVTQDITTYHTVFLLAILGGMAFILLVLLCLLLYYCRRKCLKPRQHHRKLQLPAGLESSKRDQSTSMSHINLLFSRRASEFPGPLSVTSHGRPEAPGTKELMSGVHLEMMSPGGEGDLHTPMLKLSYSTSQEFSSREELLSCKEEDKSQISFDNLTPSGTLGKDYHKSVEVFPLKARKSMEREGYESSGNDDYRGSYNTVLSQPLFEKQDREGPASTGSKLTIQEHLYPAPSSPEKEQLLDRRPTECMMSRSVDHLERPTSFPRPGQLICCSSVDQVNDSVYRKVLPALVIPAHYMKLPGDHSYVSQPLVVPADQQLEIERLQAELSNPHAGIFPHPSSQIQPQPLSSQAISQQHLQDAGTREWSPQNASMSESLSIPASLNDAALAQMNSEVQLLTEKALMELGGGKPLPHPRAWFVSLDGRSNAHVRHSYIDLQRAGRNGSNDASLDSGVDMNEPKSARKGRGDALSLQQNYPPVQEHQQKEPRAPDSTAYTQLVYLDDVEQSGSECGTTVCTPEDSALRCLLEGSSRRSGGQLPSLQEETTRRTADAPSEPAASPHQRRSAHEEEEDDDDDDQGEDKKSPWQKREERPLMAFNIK
UniProt Q96PV7: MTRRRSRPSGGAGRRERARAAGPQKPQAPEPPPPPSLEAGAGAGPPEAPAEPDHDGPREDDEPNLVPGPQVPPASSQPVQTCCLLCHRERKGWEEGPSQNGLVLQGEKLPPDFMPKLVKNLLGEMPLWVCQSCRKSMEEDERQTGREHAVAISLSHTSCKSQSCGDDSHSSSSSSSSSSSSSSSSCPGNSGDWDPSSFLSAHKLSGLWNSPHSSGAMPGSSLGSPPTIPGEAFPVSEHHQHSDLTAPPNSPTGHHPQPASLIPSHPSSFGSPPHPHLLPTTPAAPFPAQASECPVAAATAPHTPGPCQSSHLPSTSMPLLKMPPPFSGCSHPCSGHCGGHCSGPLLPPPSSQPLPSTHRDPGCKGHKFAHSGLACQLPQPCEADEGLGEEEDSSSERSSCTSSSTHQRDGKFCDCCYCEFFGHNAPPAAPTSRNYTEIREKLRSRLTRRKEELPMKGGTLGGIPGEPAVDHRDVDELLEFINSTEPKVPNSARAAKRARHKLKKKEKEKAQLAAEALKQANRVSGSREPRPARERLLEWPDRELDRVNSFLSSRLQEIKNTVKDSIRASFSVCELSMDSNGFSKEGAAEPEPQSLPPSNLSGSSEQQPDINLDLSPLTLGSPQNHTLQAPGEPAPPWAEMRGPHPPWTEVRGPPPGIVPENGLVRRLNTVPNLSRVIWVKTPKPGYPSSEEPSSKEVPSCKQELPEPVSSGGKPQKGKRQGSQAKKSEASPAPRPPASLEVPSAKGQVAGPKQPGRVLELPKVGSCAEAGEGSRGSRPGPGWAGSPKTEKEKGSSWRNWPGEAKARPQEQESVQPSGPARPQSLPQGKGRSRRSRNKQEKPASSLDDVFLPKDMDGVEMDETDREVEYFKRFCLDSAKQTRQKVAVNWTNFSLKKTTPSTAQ
UniProt Q9BVV8: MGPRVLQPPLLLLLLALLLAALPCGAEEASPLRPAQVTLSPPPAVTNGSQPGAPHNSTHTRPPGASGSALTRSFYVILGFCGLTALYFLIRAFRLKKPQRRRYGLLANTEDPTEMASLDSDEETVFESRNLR
UniProt P41161: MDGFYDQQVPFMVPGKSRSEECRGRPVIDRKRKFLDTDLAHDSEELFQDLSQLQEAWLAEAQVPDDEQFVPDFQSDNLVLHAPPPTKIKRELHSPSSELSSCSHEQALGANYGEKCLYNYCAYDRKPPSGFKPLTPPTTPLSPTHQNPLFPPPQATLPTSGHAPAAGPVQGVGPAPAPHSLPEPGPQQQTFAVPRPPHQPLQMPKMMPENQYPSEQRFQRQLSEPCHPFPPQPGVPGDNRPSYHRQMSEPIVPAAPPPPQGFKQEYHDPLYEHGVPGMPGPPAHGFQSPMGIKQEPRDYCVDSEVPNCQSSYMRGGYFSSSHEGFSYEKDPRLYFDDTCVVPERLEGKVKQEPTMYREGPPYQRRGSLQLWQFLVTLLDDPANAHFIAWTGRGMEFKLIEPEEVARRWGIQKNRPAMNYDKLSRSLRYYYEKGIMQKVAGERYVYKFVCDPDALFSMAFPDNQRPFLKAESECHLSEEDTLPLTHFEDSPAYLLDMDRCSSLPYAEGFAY
UniProt Q8IW50: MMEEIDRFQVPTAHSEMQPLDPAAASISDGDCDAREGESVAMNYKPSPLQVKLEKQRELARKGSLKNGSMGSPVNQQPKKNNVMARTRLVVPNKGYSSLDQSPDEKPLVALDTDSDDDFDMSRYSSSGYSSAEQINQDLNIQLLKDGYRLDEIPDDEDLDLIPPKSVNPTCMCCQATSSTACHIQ

How the values were obtained:
Assay in all cases: log2 fold change, soluble protein after heating vs DMSO (PISA); higher = thermal stabilisation; K562 lysate, 10 uM; active = over 0.2 and 3.5 SD of the protein, either way, in both replicates (recomputed)
Tubastatin A = compound: CN1CCc2c(c3ccccc3n2Cc2ccc(C(=O)NO)cc2)C1 [Tubastatin A]
In short: (§1)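 Thermal stability, expressed as log-two fold change relative to solvent controls, is given from duplicates. Crude K562 extract in PBS pH 7.4 with 1 mM MgCl2, at 1 mg/mL protein, was treated with 10 μM compound for 30 min and heated in aliquots for 3 min across 48°C-58°C. After pooling, adjustment to 0.5% NP-40 at 4°C and centrifugation at 21,000xg for 90 min, supernatant protein was measured by TMTpro 16plex LC-MS/MS with channel sums equalised.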

[1] = compound: CNC(=O)C1=CC=CC=C1NC2=NC(=NC=C2Cl)NC3=C(C=C(C=C3)N4CCOCC4)OC
In short: as §1

[2] = compound: CNc1nc(-c2ccc3c(N)n[nH]c3c2)cc(N2C[C@@H](C(=O)NC3CCCCC3)CC[C@H]2C)n1
In short: as §1

encorafenib = compound: COC(=O)N[C@@H](C)CNc1nccc(-c2cn(C(C)C)nc2-c2cc(Cl)cc(NS(C)(=O)=O)c2F)n1 [encorafenib]
In short: as §1

[3] = compound: COC(=O)[C@H](CCSC)NC(=O)C1=C(C=C(C=C1)NC[C@H](CS)N)C2=CC=CC=C2
In short: as §1

alvocidib = compound: CN1CC[C@H](c2c(O)cc(O)c3c(=O)cc(-c4ccccc4Cl)oc23)[C@H](O)C1 [alvocidib]
In short: as §1

defactinib = compound: CNC(=O)c1ccc(Nc2ncc(C(F)(F)F)c(NCc3nccnc3N(C)S(C)(=O)=O)n2)cc1 [defactinib]
In short: as §1

alisertib = compound: COc1cc(Nc2ncc3c(n2)-c2ccc(Cl)cc2C(c2c(F)cccc2OC)=NC3)ccc1C(=O)O [alisertib]
In short: as §1

[4] = compound: COc1cc2nc(-c3cc(F)ccc3O)nc(N[C@@H]3CNC[C@H]3C(C)(C)O)c2cc1OC
In short: as §1

gefitinib = compound: COc1cc2ncnc(Nc3ccc(F)c(Cl)c3)c2cc1OCCCN1CCOCC1 [gefitinib]
In short: as §1

Measured: log2 fold change

EVA1B (UniProt Q9NVM1)
inactive: Tubastatin A 0.388 | [1] -0.11 | [2] 0.185

ERN1 (UniProt O75460)
inactive: [1] 0.271 | encorafenib 0.049 | [3] -0.074

FAM193A, A0A1B0GVL4
inactive: alvocidib 0.042 | [1] 0.141 | defactinib 0.121 | encorafenib 0.138 | [3] -0.044 | alisertib -0.021 | [4] 0.013 | gefitinib 0.006

FAM104A isoform 2 (UniProt Q969W3)
inactive: Tubastatin A 0.06 | [2] -0.11

EXD2 (UniProt Q9NVH0)
inactive: Tubastatin A -0.186 | [1] 0.141 | defactinib -0.018 | [2] 0.168

FAM171A2 (UniProt A8MVW0)
inactive: [1] -0.089

FAM102B (UniProt Q5T8I3)
inactive: alvocidib 0.067 | [1] -0.461 | defactinib 0.064 | encorafenib -0.054 | [3] 0.025 | [4] 0.03

ETV6 (UniProt P41212)
inactive: alvocidib 0.013 | Tubastatin A 0.102 | defactinib 0.076 | [2] 0.068 | encorafenib 0.021 | [3] -0.165 | alisertib -0.03 | [4] -0.037 | gefitinib 0.216

EURL (UniProt Q9NYK6)
inactive: alvocidib -0.031 | [1] 0.12 | [2] 0.074 | [4] -0.075

FAM135A (UniProt Q9P2D6)
inactive: alvocidib -0.154 | Tubastatin A -0.177 | [2] -0.037 | alisertib -0.231 | gefitinib 0.096

EXOC6B (UniProt Q9Y2D4)
inactive: defactinib -0.049 | encorafenib -0.061 | [3] 0.019 | alisertib -0.002 | [4] 0.01 | gefitinib 0

FAM222B (UniProt Q8WU58)
inactive: Tubastatin A 0.026 | [1] 0.007 | defactinib 0.064 | [2] 0.076 | encorafenib -0.156 | [3] -0.007 | alisertib 0.01 | gefitinib -0.052

Seven successive entries already listed, for reference:
FAM193A, A0A1B0GVL4
inactive: alvocidib 0.042 | [1] 0.141 | defactinib 0.121 | encorafenib 0.138 | [3] -0.044 | alisertib -0.021 | [4] 0.013 | gefitinib 0.006

FAM104A isoform 2 (UniProt Q969W3)
inactive: Tubastatin A 0.06 | [2] -0.11

EXD2 (UniProt Q9NVH0)
inactive: Tubastatin A -0.186 | [1] 0.141 | defactinib -0.018 | [2] 0.168

FAM171A2 (UniProt A8MVW0)
inactive: [1] -0.089

FAM102B (UniProt Q5T8I3)
inactive: alvocidib 0.067 | [1] -0.461 | defactinib 0.064 | encorafenib -0.054 | [3] 0.025 | [4] 0.03

ETV6 (UniProt P41212)
inactive: alvocidib 0.013 | Tubastatin A 0.102 | defactinib 0.076 | [2] 0.068 | encorafenib 0.021 | [3] -0.165 | alisertib -0.03 | [4] -0.037 | gefitinib 0.216

EURL (UniProt Q9NYK6)
inactive: alvocidib -0.031 | [1] 0.12 | [2] 0.074 | [4] -0.075

Continued.

FAM120A, A0A494C0Y9
inactive: Tubastatin A -0.171 | [1] -0.129 | [2] 0.069

ETV3 (UniProt P41162)
inactive: Tubastatin A -0.034 | encorafenib 0.061 | [3] 0.159

FAM13A (UniProt O94988)
inactive: Tubastatin A -0.236 | [2] -0.145

FAM110A (UniProt Q9BQ89)
inactive: alvocidib 0.008 | [1] -0.282 | [4] -0.099

FAM160A2 isoform 2 (UniProt Q8N612)
inactive: alvocidib 0 | [1] 0.214 | defactinib -0.024 | [2] -0.172 | encorafenib 0.018 | [3] -0.054 | alisertib -0.03 | gefitinib -0.026

ETAA1 (UniProt Q9NY74)
inactive: [1] 0.054 | defactinib 0.191 | encorafenib 0.239 | [3] -0.159

ERV3-1 (UniProt Q14264)
inactive: [1] 0.088 | [2] -0.118 | encorafenib -0.057 | [3] -0.09

FAM122B isoform 2 (UniProt Q7Z309)
inactive: Tubastatin A 0.027

FAM234B (UniProt A2RU67)
inactive: Tubastatin A -0.028 | [4] 0.131

FAM72C (UniProt H0Y354)
inactive: alvocidib -0.086 | Tubastatin A -0.158 | defactinib 0.16

ETV1 (UniProt P50549)
inactive: Tubastatin A -0.076 | [1] 0.356 | [2] -0.065 | alisertib -0.088 | gefitinib 0.243

EXO5 (UniProt Q9H790)
inactive: Tubastatin A 0.018 | [1] 0.068

F2 (UniProt P00734)
inactive: Tubastatin A -0.108 | encorafenib 0.04 | [3] -0.006 | [4] -0.006

EWSR1 (UniProt H7BY36)
inactive: alvocidib 0.206 | Tubastatin A 0.179 | defactinib 0.14 | [2] 0.037 | encorafenib 0.063 | [3] -0.061

FAM3A (UniProt Q9BU27)
inactive: Tubastatin A 0.016 | [2] 0.49 | alisertib 0.108 | gefitinib 0.049

EXOC3L2, A0A1C7CYX0
inactive: alvocidib -0.045 | [1] 0.019 | [2] 0.007 | encorafenib 0.033 | [3] -0.028

FAM111A (UniProt Q96PZ2)
inactive: Tubastatin A -0.083 | [1] 0.022 | defactinib 0.053 | [2] -0.119 | encorafenib -0.074 | [3] -0.11 | [4] -0.091

ESPN (UniProt B1AK53)
inactive: Tubastatin A 0.078 | [2] 0.278 | encorafenib 0.062 | [3] 0.033

FAM49B, A0A1W2PRQ0
inactive: Tubastatin A 0.215 | defactinib 0.02 | encorafenib 0.057 | [3] -0.285

FAM171A1 (UniProt Q5VUB5)
inactive: Tubastatin A -0.139 | [1] -0.089 | [2] -0.026 | [4] 0.161

FAM193B (UniProt Q96PV7)
inactive: alvocidib -0.11 | [1] 0.108 | defactinib 0.018 | [4] -0.042

FAM174C (UniProt Q9BVV8)
inactive: alvocidib -0.174 | [1] 0.244 | alisertib -0.157 | [4] -0.19 | gefitinib -0.169

ETV5 isoform 2 (UniProt P41161)
inactive: alvocidib -0.092 | defactinib 0.08 | encorafenib 0.054 | [3] -0.095

FAM219A (UniProt Q8IW50)
inactive: alvocidib -0.017 | Tubastatin A 0.063 | [1] -0.025 | [2] -0.152 | encorafenib -0.018 | [3] -0.118 | [4] 0.058

ESCO2 (UniProt Q56NI9)
inactive: alvocidib 0.125 | Tubastatin A -0.262 | [1] 0.019 | [2] 0.499 | encorafenib 0.105 | [3] -0.037 | [4] 0.023
